For at least one entry, the source does not settle the construct or the ends of the probe. A weaker result is weaker than the reference pair of the same experiment.
How the values were obtained:
[1] = molecular target: Bovine serum albumin (BSA) (Bos taurus) (UniProt P02769); assay: flow cytometry bead binding; details: relatively weak / minimal cross-reactivity; PBS binding buffer (SELEX with 0.1 mg/mL salmon sperm DNA and 1 mg/mL BSA, 37 °C); Kd assay on beads in binding buffer, room temperature, 30 min; pH not stated; commercial protein; label: FITC; single-stranded DNA
[2] = system: Trypsin; assay: flow cytometry bead binding; details: relatively weak; PBS binding buffer (SELEX with 0.1 mg/mL salmon sperm DNA and 1 mg/mL BSA, 37 °C); Kd assay on beads in binding buffer, room temperature, 30 min; pH not stated; commercial protein; label: FITC; single-stranded DNA

The chains behind the UniProt entries cited, without tags or fusion partners. Residues count along the entry.
UniProt P02769, 25-607: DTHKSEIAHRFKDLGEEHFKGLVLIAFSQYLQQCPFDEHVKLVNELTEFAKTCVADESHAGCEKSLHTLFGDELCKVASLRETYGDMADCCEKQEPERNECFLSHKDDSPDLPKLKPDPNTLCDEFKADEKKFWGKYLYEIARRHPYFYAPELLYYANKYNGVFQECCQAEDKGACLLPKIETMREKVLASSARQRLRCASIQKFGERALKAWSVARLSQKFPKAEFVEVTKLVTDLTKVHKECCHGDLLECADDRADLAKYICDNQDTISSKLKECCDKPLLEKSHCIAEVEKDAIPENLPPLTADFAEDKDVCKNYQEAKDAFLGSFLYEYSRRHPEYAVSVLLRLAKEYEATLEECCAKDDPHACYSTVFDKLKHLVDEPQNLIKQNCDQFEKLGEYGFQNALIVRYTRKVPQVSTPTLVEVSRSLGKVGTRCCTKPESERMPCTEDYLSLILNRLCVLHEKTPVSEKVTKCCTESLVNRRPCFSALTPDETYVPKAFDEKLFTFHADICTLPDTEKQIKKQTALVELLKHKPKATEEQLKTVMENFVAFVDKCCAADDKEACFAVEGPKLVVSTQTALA

“CCGCCCAAATCCCTAAGAGAAGACTGTAATGACATCAAACCAGACACACTACACACGCA [B1-4]”: binds more weakly [1]; binds more weakly [2].
